In the supplement of paper PMC10338343:
± gives the standard deviation. Only a part is listed here, and it is no random draw. Many entries were measured with a wide error.

tested on: EfPiwi piRISC loaded with piRNA #1 (26 nt); assay: pre-steady-state target cleavage rate (min^-1); guide: piRNA #1 5'p-UGAGGUAGUAGGUUGUAUAGUAUCCA; MIWI and MILI are mouse PIWI proteins and EfPiwi is from a freshwater sponge; tags in brackets are library labels; higher = faster piRNA-guided slicing of the target; conditions: auxiliary factor: 500 nM Ephydatia muelleri Gtsf1
In short: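 A transcribed, DNA-blocked target RNA library (0.1 nM) and 1 nM active affinity-purified piRISC bearing one synthetic guide were incubated in HEPES–potassium acetate buffer at 33 °C for 0–8 or 0–960 min, either with or without 500 nM GTSF1 partner protein. Uncleaved targets were sequenced, normalised to depth and to weakly complementary targets, and pooled over three trials, with k3 capped at 0.0001 min^-1. The pre-steady-state cleavage rate was derived with a burst-and-steady-state fit.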

| Sequence | pre-steady-state target cleavage rate |
| --- | --- |
| GGAGAGGAUACUAAACAACCUACUACCACA | 0.00277 ± 0.002 |
| GGAGAGGUUACUAUACAACGUACUACCUCA | 0.00457 ± 0.0015 |
| GGAGACCUAUCUAAACAACCUUCUACCUCA | 0.00108 ± 0.0062 |
| GGAGAGGAUACUAUACAGCCUACUACCUCA | 0.105 ± 0.04 |
| GGAGACGAUACUAUACAACCUACUACCAGA | 0.00503 ± 0.0015 |
| GGAGACCUAACUAUACAACCUACGUACCUCA | 0.00159 ± 0.0055 |
| GGAGAGGAUACUUUUCAACCUACUACCUCA | 0.00409 ± 0.004 |
| GGAGACGAUACUAAACAACCAACUACCUCA | 0.0024 ± 0.0017 |
| GGAGACCUAACUAUACAACCUACUACCCA | 0.00326 ± 0.0026 |
| GGAGACCAUACUAUACAAGCAACUACCUCA | 0.00176 ± 0.0039 |
| GGAGACCAUACUAUUGUACCUACUACCUCA | 0.00237 ± 0.0038 |
| GGAGAGGAUACAAUACAACCUACAACCUCA | 0.00231 ± 0.0018 |
| GGAGACCAUACUAACAACCUACUACCUCA | 0.00859 ± 0.0041 |
| GGAGACCAUCUAUACAACCUACUACCUCA | 0.00903 ± 0.0054 |
| GGAGACCUAUGUAUACAAGCUACUACGUCA | 0.00162 ± 0.0056 |
| GGAGAGUAUACUAUACAACCUACUACCUCA | 0.0182 ± 0.0087 |
| GGAGACCUAUGAUAUGAAGGAACUACCUCA | 0.000206 ± 0.013 |
| GGAGACCUAUCUAUACAACCUACAACCACA | 0.00118 ± 0.0066 |
| GGAGAGGAUACUAUACAACCUACUACCUAA | 0.0131 ± 0.0058 |
| GGAGACCUAUCUAUACAACCAUGAUGGAGA [g11:g20:cont:t1A] | 0.00169 ± 0.0052 |

| Sequence | pre-steady-state target cleavage rate |
| --- | --- |
| GGAGACCUUACUAUUCAACGUACUACCUCA | 0.00226 ± 0.0041 |
| GGAGACCUAUCUAUACAACCUACUACCUCCA | 0.0208 ± 0.0083 |
| GGAGACCUAACUAUAGAACCUACUACCACA | 0.000659 ± 0.015 |
| GGAGUGGAUACUAUACAACCUACUAACUCA | 0.00991 ± 0.0043 |
| GGAGACCUAACUAUACAACCUGCUACCUCA | 0.0127 ± 0.005 |
| GGAGACCUUACUAUACAAGGUACUACCUCA | 0.0022 ± 0.0022 |
| GGAGACCUAUGUUAUCAACCUACUACCUCA | 0.00119 ± 0.0074 |
| GGAGUGGAUACAAUACAACCUACUAGCUCA | 0.00216 ± 0.0014 |
| GGAGACCUAUCUAUACAACCUAGAUGGAGA [g9:g20:cont:t1A] | 0.00107 ± 0.0043 |
| GGAGACGAUUCUUUACAACCUACUACCUCA | 0.00312 ± 0.005 |
| GGAGAGGAUACUAUACAACCUACUAGCACA | 0.00322 ± 0.0016 |
| GGAGACCUAUCUAUACAUCCUACUAGCUCA | 0.0025 ± 0.0038 |
| GGAGACCUAUCUAUACAACCUACUUCCACA | 0.000377 ± 0.0069 |
| GGAGACCUAUGUAUACAACCUACAUGGAGA [g8:g19:cont:t1A] | 0.000636 ± 0.011 |
| GGAGACCAUACUAUACUACCUACUACCUCA | 0.00859 ± 0.0036 |
| GGAGACCUAUCUAUACAACCAACUACCUCA | 0.00235 ± 0.0028 |
| GGAGACCAUACUUUACAACCUACUUCCUCA | 0.00404 ± 0.0039 |
| GGAGUGGAUACUUUACAACCUUCUACCUCA | 0.00301 ± 0.0026 |
| GGAGACCUAACUAUUGAACCUACUACCUCA | 0.00116 ± 0.0071 |
| GGAGACCAUUCUAUACAACCUUCUACCUCA | 0.00336 ± 0.0032 |

Looked up one by one from above (three):

| Sequence | pre-steady-state target cleavage rate |
| --- | --- |
| GGAGACCUAUCUAUACAACCUACUACCUCCA | 0.0208 ± 0.0083 |
| GGAGACCUAUCUAUACAACCUACUUCCACA | 0.000377 ± 0.0069 |
| GGAGACCUAUCUAUACAACCAACUACCUCA | 0.00235 ± 0.0028 |
